PubChem BioAssay AID1259425 | University of Nebraska Medical Center, 2018

Test: 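Compare each knockdown with KSR1 silencing using changes in marker transcripts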 (primary screen)
Cells: HCT116 human colon cancer cells
Reagent: siRNA pool against human genes, 50 nM siRNA
Measurement: 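mRNA of six signature genes measured together by branched-DNA assay after 50 nM siRNA pool, blank removed, divided by geometric mean of two housekeeping genes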
Direction: BNIP3L mRNA: higher = more BNIP3L transcript after knockdown; NDRG1 mRNA: higher = more NDRG1 transcript after knockdown
Here is one part, drawn at random, of about 14,000 reagents tested. Not all columns of the deposit are shown. The record does not give: the time to read-out.

FEM1A (fem-1 homolog A) scored BNIP3L mRNA, set 1 = 0.0394; NDRG1 mRNA, set 1 = 0.114.
RBM42 (RNA binding motif protein 42) scored BNIP3L mRNA, set 1 = 0.121; NDRG1 mRNA, set 1 = 0.203.
Silencing of PCYT1A (phosphate cytidylyltransferase 1A, choline) gave: BNIP3L mRNA, set 1 = 0.052; NDRG1 mRNA, set 1 = 0.268.
MAN2C1 (mannosidase alpha class 2C member 1) scored BNIP3L mRNA, set 1 = 0.169; NDRG1 mRNA, set 1 = 0.245.
HSH2D (hematopoietic SH2 domain containing) scored BNIP3L mRNA, set 1 = 0.0985; NDRG1 mRNA, set 1 = 0.103.
Knock-down of WASHC3 (WASH complex subunit 3) resulted in: BNIP3L mRNA, set 1 = 0.0615; NDRG1 mRNA, set 1 = 0.239.
After knock-down of CCDC85B (coiled-coil domain containing 85B) the results were BNIP3L mRNA, set 1 = 0.147; NDRG1 mRNA, set 1 = 0.206.
HIP1R (huntingtin interacting protein 1 related) scored BNIP3L mRNA, set 1 = 0.157; NDRG1 mRNA, set 1 = 0.162.
Depletion of FRZB (frizzled related protein) came out at: BNIP3L mRNA, set 1 = 0.0711; NDRG1 mRNA, set 1 = 0.055.
Against TMUB1 (transmembrane and ubiquitin like domain containing 1) the deposit lists BNIP3L mRNA, set 1 = 0.319; NDRG1 mRNA, set 1 = 0.84.

Copied from the listing for reference:
MAN2C1 (mannosidase alpha class 2C member 1): BNIP3L mRNA, set 1 = 0.169; NDRG1 mRNA, set 1 = 0.245
HSH2D (hematopoietic SH2 domain containing): BNIP3L mRNA, set 1 = 0.0985; NDRG1 mRNA, set 1 = 0.103

The listing continues:
For ARFGAP3 (ARF GTPase activating protein 3) the deposit lists BNIP3L mRNA, set 1 = 0.111; NDRG1 mRNA, set 1 = 0.198.
With knock-down of DNAJA3 (DnaJ heat shock protein family (Hsp40) member A3), the screen gave BNIP3L mRNA, set 1 = 0.137; NDRG1 mRNA, set 1 = 0.287.
After knock-down of CENPN (centromere protein N), the record shows BNIP3L mRNA, set 1 = 0.193; NDRG1 mRNA, set 1 = 0.229.
Against MEOX1 (mesenchyme homeobox 1), the values are BNIP3L mRNA, set 1 = 0.0738; NDRG1 mRNA, set 1 = 0.132.
Against ATAD2 (ATPase family AAA domain containing 2), the entry reads BNIP3L mRNA, set 1 = 0.187; NDRG1 mRNA, set 1 = 0.206.
Depletion of RPS19 (ribosomal protein S19) came out at: BNIP3L mRNA, set 1 = 0.133; NDRG1 mRNA, set 1 = 0.0781.
BEX2 (brain expressed X-linked 2) gave BNIP3L mRNA, set 1 = 0.35; NDRG1 mRNA, set 1 = 0.173.
After knock-down of TNNT2 (troponin T2, cardiac type), the record shows BNIP3L mRNA, set 1 = 0.0676; NDRG1 mRNA, set 1 = 0.189.
TSPY2 (testis specific protein Y-linked 2) showed BNIP3L mRNA, set 1 = 0.0784; NDRG1 mRNA, set 1 = 0.317.
OR2L13 (olfactory receptor family 2 subfamily L member 13) showed BNIP3L mRNA, set 1 = 0.167; NDRG1 mRNA, set 1 = 0.346.
Silencing of CTNNBL1 (catenin beta like 1) gave: BNIP3L mRNA, set 1 = 0.099; NDRG1 mRNA, set 1 = 0.0899.
Knock-down of SERTAD4 (SERTA domain containing 4) resulted in: BNIP3L mRNA, set 1 = 0.0895; NDRG1 mRNA, set 1 = 0.183.
After knock-down of SCNN1D (sodium channel epithelial 1 subunit delta), the record shows BNIP3L mRNA, set 1 = 0.167; NDRG1 mRNA, set 1 = 0.0823.
Knock-down of MT1F (metallothionein 1F) gave: BNIP3L mRNA, set 1 = 0.265; NDRG1 mRNA, set 1 = 1.49.
For CXCR1 (C-X-C motif chemokine receptor 1), the entry reads BNIP3L mRNA, set 1 = 0.136; NDRG1 mRNA, set 1 = 0.192.
XPO1 (exportin 1) scored BNIP3L mRNA, set 1 = 0.0536; NDRG1 mRNA, set 1 = 0.19.
For SLC5A5, the entry reads BNIP3L mRNA, set 1 = 0.0949; NDRG1 mRNA, set 1 = 0.62.
SMARCAL1 (SNF2 related chromatin remodeling annealing helicase 1) showed BNIP3L mRNA, set 1 = 0.0883; NDRG1 mRNA, set 1 = 0.173.
